Binding data for one molecule are collected here from doi:10.1101/2022.07.11.499601.

For the assay, the target named is T1, CXCR3-SmBiT, P49682.
T1 chain: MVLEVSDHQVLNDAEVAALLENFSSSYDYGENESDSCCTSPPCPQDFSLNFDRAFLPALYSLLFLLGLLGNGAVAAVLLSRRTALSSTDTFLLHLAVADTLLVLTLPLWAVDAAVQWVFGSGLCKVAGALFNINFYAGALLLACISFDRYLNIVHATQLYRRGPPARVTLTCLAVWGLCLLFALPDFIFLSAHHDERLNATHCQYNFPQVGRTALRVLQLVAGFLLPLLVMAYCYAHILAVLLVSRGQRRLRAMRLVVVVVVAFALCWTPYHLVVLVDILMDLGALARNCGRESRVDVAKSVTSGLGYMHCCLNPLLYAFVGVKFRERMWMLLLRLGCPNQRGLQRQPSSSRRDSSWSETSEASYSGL
Briefly: split reporter. As to conditions: remark: other sources report otherwise.

Results are given in words; binding and its absence hold for the method and conditions named. Binding seen in cells or lysates may run through a third protein. Some entries that bind do so weakly or less than the wild type.

B1: GRK6-LgBiT, P43250 1-576 (enzyme)
chain: MELENIVANTVLLKAREGGGGNRKGKSKKWRQMLQFPHISQCEELRLSLERDYHSLCERQPIGRLLFREFCATRPELSRCVAFLDGVAEYEVTPDDKRKACGRQLTQNFLSHTGPDLIPEVPRQLVTNCTQRLEQGPCKDLFQELTRLTHEYLSVAPFADYLDSIYFNRFLQWKWLERQPVTKNTFRQYRVLGKGGFGEVCACQVRATGKMYACKKLEKKRIKKRKGEAMALNEKQILEKVNSRFVVSLAYAYETKDALCLVLTLMNGGDLKFHIYHMGQAGFPEARAVFYAAEICCGLEDLHRERIVYRDLKPENILLDDHGHIRISDLGLAVHVPEGQTIKGRVGTVGYMAPEVVKNERYTFSPDWWALGCLLYEMIAGQSPFQQRKKKIKREEVERLVKEVPEEYSERFSPQARSLCSQLLCKDPAERLGCRGGSAREVKEHPLFKKLNFKRLGAGMLEPPFKPDPQAIYCKDVLDIEQFSTVKGVELEPTDQDFYQKFATGSVPIPWQNEMVETECFQELNVFGLDGSVPPDLDWKGQPPAPPKKGLLQRLFSRQDCCGNCSDSEEELPTRL
In the case of B1, the binding entry is reported as “binds”.
